Measured values from paper PMC2900304.
Results are given in words; binding and its absence hold for the method and conditions named. In cells and extracts the contact can be indirect. Some entries that bind do so weakly or less than the wild type. For part of these data: Sequences can lack the tags named with a protein.

T1: human R1 (HR1), ribonucleotide reductase large subunit, endogenous (human (endogenous in HeLa)) (UniProt P23921)
T1 sequence: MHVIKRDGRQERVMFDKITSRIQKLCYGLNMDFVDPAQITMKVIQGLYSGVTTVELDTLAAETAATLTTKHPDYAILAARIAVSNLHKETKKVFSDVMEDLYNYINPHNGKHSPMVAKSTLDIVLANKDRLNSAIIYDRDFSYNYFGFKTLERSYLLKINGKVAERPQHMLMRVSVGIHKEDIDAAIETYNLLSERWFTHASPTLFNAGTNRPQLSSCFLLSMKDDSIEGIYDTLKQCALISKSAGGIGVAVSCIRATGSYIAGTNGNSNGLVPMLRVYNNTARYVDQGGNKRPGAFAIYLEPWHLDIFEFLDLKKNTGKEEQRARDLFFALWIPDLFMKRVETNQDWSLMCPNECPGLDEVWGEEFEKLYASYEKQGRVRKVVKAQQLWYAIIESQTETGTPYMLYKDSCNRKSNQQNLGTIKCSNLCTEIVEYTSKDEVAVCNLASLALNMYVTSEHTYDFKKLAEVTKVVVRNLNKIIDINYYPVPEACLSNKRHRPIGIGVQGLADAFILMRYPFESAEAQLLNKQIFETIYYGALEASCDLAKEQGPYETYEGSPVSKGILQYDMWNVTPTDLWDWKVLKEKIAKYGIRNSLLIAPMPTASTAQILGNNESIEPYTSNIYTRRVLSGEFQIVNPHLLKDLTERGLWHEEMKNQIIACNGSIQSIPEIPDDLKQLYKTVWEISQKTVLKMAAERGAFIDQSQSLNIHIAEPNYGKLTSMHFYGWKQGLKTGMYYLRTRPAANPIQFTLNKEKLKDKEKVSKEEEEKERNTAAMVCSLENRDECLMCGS

T2: human p53R2 (Hp53R2), endogenous (human (endogenous in HeLa)) (UniProt Q7LG56)
T2 sequence: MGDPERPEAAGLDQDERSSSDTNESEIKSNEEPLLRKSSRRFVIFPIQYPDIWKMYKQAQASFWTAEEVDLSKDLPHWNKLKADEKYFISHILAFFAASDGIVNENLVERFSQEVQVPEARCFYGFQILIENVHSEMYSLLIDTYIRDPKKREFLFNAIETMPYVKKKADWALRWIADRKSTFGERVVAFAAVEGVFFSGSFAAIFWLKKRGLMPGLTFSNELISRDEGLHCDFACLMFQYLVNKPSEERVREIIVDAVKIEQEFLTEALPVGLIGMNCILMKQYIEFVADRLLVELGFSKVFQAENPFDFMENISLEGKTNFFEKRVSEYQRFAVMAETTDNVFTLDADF

T3: Flag-tagged human R1 (Flag-tagged HR1) (human) (UniProt P23921)
T3 sequence: T1 sequence

T4: human R2 (HR2), ribonucleotide reductase small subunit, endogenous (human (endogenous in HeLa)) (UniProt P31350)
T4 sequence: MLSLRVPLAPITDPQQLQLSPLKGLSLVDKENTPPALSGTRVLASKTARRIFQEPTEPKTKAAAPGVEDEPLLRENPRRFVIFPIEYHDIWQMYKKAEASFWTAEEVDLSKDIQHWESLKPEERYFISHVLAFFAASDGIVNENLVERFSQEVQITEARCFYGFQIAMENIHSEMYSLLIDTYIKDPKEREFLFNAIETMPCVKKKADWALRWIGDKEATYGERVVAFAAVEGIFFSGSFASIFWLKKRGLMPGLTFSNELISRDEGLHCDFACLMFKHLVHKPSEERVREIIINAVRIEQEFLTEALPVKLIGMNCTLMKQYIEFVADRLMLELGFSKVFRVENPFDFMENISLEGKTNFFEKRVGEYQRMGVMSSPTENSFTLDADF

B1: human R1 (HR1), ribonucleotide reductase large subunit, endogenous (protein, UniProt P23921 1-792)
chain: T1 sequence
B2: human R2 (HR2), ribonucleotide reductase small subunit, endogenous (protein, UniProt P31350-1 1-389)
chain: T4 sequence
B3: human p53R2 (Hp53R2), endogenous (protein, UniProt Q7LG56 1-351)
chain: T2 sequence

Assays:
Assay in all cases: co-IP
[1] = target: T1, human R1 (HR1), ribonucleotide reductase large subunit, endogenous (human (endogenous in HeLa))
[2] = target: T2, human p53R2 (Hp53R2), endogenous (human (endogenous in HeLa))
[3] = target: T3, Flag-tagged human R1 (Flag-tagged HR1) (human)
[4] = target: Flag-tagged vaccinia virus I4 (R1 subunit) (vaccinia virus (strain Western Reserve)) (UniProt P12848)
[5] = target: T4, human R2 (HR2), ribonucleotide reductase small subunit, endogenous (human (endogenous in HeLa))
[6] = target: His6-tagged vaccinia virus F4 (vaccinia virus (strain Western Reserve)) (UniProt P11158)

| Molecule | binding [1] | binding [4] | also measured |
| --- | --- | --- | --- |
| His6-tagged vaccinia virus F4 (from UniProt P11158 1-319) | binds |  |  |
| vaccinia virus (VACV) F4, ribonucleotide reductase small subunit (R2) (from UniProt P11158 1-319) | binds | binds | binding [2]: binds; binding [3]: binds; binding [5]: binds |
| B1 |  |  | binding [6]: binds |
| B2 |  | binds |  |
| B3 |  | binds |  |
